PubChem BioAssay AID1259285 | Sanger Institute, 2017

- Aim: 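Kinase knock-downs that reduce colorectal cancer cell viability or act with drugs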 (primary screen)
- System: human HCC56 colorectal cancer cells
- Reagent: siRNA pool against human genes
- Challenge: DMSO vehicle, or anchor drug BYL719 at 1 µM, cetuximab at 5 µg/ml, or trametinib at 10 nM
- Detection: 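Viability as a ratio to non-targeting pool wells, averaged over replicates and turned into a robust z-score; synergy scores with BYL719, cetuximab or trametinib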
- Reading the numbers: viability robust z-score, no drug: higher = more viable cells, weaker knock-down effect
- Active means: 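Essential when the drug-free viability robust z-score falls below -3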
- Calls: active = essential without drug; inactive = no change without drug
Here is a random part of 794 reagents tested. 20 of them (2.5%) were called active. 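Calls rest on the drug-free arm alone and ignore synergy scores; viability ratios seem to be capped at 1.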 Not all columns of the deposit are shown. Reagent sequences are not shown. Not stated in the record: the amount of reagent, the time to read-out.

PKN1 | viability robust z-score, no drug: 0.458; call: inactive
CHD9 | viability robust z-score, no drug: 0.458; call: inactive
DCK | viability robust z-score, no drug: 0.458; call: inactive
ACVR2B | viability robust z-score, no drug: -0.189; call: inactive
ERN1 | viability robust z-score, no drug: -2.27; call: inactive
SCYL1 | viability robust z-score, no drug: 0.458; call: inactive
TYRO3 | viability robust z-score, no drug: 0.458; call: inactive
MAP3K2 | viability robust z-score, no drug: 0.458; call: inactive
CSNK1D | viability robust z-score, no drug: 0.458; call: inactive
HCK | viability robust z-score, no drug: -1.37; call: inactive
PIK3R4 | viability robust z-score, no drug: -0.96; call: inactive
NPR2 | viability robust z-score, no drug: 0.458; call: inactive
MAST3 | viability robust z-score, no drug: 0.458; call: inactive
MAP3K12 | viability robust z-score, no drug: -1.02; call: inactive
OXSR1 | viability robust z-score, no drug: 0.458; call: inactive
CDC73 | viability robust z-score, no drug: 0.222; call: inactive
PRKAB2 | viability robust z-score, no drug: -1.37; call: inactive
MAPK11 | viability robust z-score, no drug: 0.458; call: inactive
NRBP2 | viability robust z-score, no drug: -2.31; call: inactive
ALK | viability robust z-score, no drug: -2.3; call: inactive
RTN4 | viability robust z-score, no drug: 0.458; call: inactive
BMPR2 | viability robust z-score, no drug: -0.0255; call: inactive
ROR1 | viability robust z-score, no drug: 0.458; call: inactive
EPHA8 | viability robust z-score, no drug: 0.458; call: inactive
RAF1 | viability robust z-score, no drug: -1.76; call: inactive
RIOK1 | viability robust z-score, no drug: 0.458; call: inactive
MAPKAPK5 | viability robust z-score, no drug: 0.458; call: inactive
CSNK2A1 | viability robust z-score, no drug: 0.458; call: inactive
MAPK10 | viability robust z-score, no drug: 0.458; call: inactive
PDGFRA | viability robust z-score, no drug: 0.458; call: inactive
CTNNB1 | viability robust z-score, no drug: -3.4; call: active
UHMK1 | viability robust z-score, no drug: 0.458; call: inactive
NME1 | viability robust z-score, no drug: 0.458; call: inactive
IP6K2 | viability robust z-score, no drug: 0.458; call: inactive
PTK6 | viability robust z-score, no drug: 0.458; call: inactive
EEF2K | viability robust z-score, no drug: 0.458; call: inactive
